# Measurements as given in PubChem BioAssay (NCATS).
# The inconclusive results got no clear call from the source; some entries with a clear call stand among them for comparison. For some of these results: Potencies of inconclusive entries are doubtful fits and often do not repeat. The source made the active and inactive calls. Unless noted, calls follow the shape of the dose curve; as a rule, active = well fitted curve in the direction sought with a large enough effect; inconclusive = small, poorly fitted or top-dose-only effect, or another doubt; inactive = no such curve, though single readings can be large; an effect the other way counts as inactive or inconclusive.
# Tests used:
# [1] = Quantitative High-Throughput drug screen in 47 multiple myeloma cell lines against the NCATS MIPE library collection: UTMC2_PLB cell viability assay (AID 1919868); conditions: CellTiter-Glo ATP luminescence, 48 h; viability (% of DMSO control): at 45.8 µM (top of the series); also: nearly all actives have a fitted effect of over 55% in size
# Outline: (§1)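 500 cells/well; MIPE 4.0 drugs pin-transferred; 48 h, 37C, 5% CO2. CellTiter-Glo, 5 min RT, luminescence. Controls: DMSO 100%, media 0%.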
# [2] = Quantitative High-Throughput drug screen in 47 multiple myeloma cell lines against the NCATS MIPE library collection: PE2_PLB cell viability assay (AID 1919869); conditions: PE2_PLB myeloma cells viability, ATP luminescence, 48 h; viability (% of control): at 45.8 µM (top of the series); also: nearly all actives have a fitted effect of over 35% in size
# Outline: as §1
# [3] = Quantitative High-Throughput drug screen in 47 multiple myeloma cell lines against the NCATS MIPE library collection: RPMI8226_ATCC cell viability assay (AID 1919871); conditions: RPMI8226 myeloma viability, CellTiter-Glo ATP luminescence, 48 h; viability (% of control): at 45.8 µM (top of the series); also: nearly all actives have a fitted effect of over 30% in size
# Outline: as §1
# [4] = Quantitative High-Throughput drug screen in 47 multiple myeloma cell lines against the NCATS MIPE library collection: OPM2_DSMZ cell viability assay (AID 1919872); also: nearly all actives have a fitted effect of over 30% in size
# Outline: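 qHTS of the MIPE 4.0 collection: 500 myeloma cells/well, 48 h drug exposure at 37C in 5% CO2, then CellTiter-Glo for 5 min at room temperature before luminescence reading.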
# [5] = Quantitative High-Throughput drug screen in 47 multiple myeloma cell lines against the NCATS MIPE library collection: KMS28BM_JCRB cell viability assay (AID 1919874); conditions: CellTiter-Glo ATP, 48 h; viability, % of control: at 45.8 µM (top of the series); also: nearly all actives have a fitted effect of over 35% in size
# Outline: as §1
# [6] = qHTS for identification of novel therapeutic agents for treatment of microphthalmiaassociated transcription factor (MiT) renal cell carcinoma (RCC) (AID 1963991; calls by dose curve); conditions: TFE3-RCC UOK109 viability, CellTiter-Glo, 48 h; active = Z-AUC below -0.8 in all three lines
# Outline: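 UOK109/UOK124/UOK145 (TFE3 fusions, three partners); 500 cells/well; MIPE v4.0, 1912 cpds, 11 conc.; 48 h, 37 C; CellTiter-Glo, 15 min RT; lum. Norm.: DMSO 100%, empty 0%.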
# [7] = test system: 3D7; experiment: qHTS profiling for inhibitors of Plasmodium falciparum proliferation (AID 504749); also: nearly all actives have a fitted effect of over 60% in size; conditions: P. falciparum in erythrocytes, SYBR Green DNA, 72 h; series mostly up to 28.7 µM
# Outline: (§2)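 SYBR Green fluorescence (ex 485 nm, em 535 nm) reports parasite DNA after 72 h compound exposure of infected red cells at 0.3% parasitemia, 2.5% hematocrit; signal normalized to 0.29 uM artemisinin and vehicle wells.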
# [8] = Quantitative High-Throughput drug screen in 47 multiple myeloma cell lines against the NCATS MIPE library collection: PCM6_Riken cell viability assay (AID 1919870); also: nearly all actives have a fitted effect of over 30% in size
# Outline: as §1
# [9] = Quantitative High-Throughput drug screen in 47 multiple myeloma cell lines against the NCATS MIPE library collection: KMS11_JCRBsus cell viability assay (AID 1919873); also: nearly all actives have a fitted effect of over 50% in size;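 as to viability (% of control): 100% = DMSO-only wells and 0% = media-only wells without cells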
# Outline: as §1
# [10] = test system: 7G8; experiment: qHTS profiling for inhibitors of Plasmodium falciparum proliferation (AID 504749); also: nearly all actives have a fitted effect of over 60% in size; conditions: P. falciparum in erythrocytes, SYBR Green DNA, 72 h; series mostly up to 28.7 µM
# Outline: as §2
# Potency is read from the fitted curve at half-maximal effect.
smiles,measurement,setting,value
Clc1ccc(COC(Cn2ccnc2)c2ccc(Cl)cc2Cl)c(Cl)c1 (stereo not drawn),Potency,[1],"inconclusive: 20.9 µM [cytotoxic, partial curve, poor fit]"
same,Potency,[2],"inconclusive: 26.4 µM [cytotoxic, partial curve]"
same,Potency,[3],"inconclusive: 23.5 µM [cytotoxic, partial curve]"
same,Potency,[4],"inconclusive: 18.7 µM [cytotoxic, partial curve]"
same,Potency,[5],active: 20.9 µM
same,Potency,[6],inconclusive: 16.6 µM
same,Potency,[7],"inconclusive: 7.08 µM [inhibitor, single point]"
CCCCN(CCCC)CC(O)c1cc(Cl)cc2c1-c1ccc(Cl)cc1C2=Cc1ccc(Cl)cc1 (stereo not drawn),Potency,[1],"inconclusive: 29.6 µM [cytotoxic, partial curve, poor fit]"
same,Potency,[2],active: 20.9 µM
same,Potency,[8],"inconclusive: 29.6 µM [cytotoxic, single point]"
same,Potency,[3],"inconclusive: 37.2 µM [cytotoxic, single point]"
same,Potency,[4],"inconclusive: 37.2 µM [cytotoxic, single point]"
same,Potency,[9],"inconclusive: 33.2 µM [cytotoxic, single point]"
same,Potency,[6],inconclusive: 0.296 µM
O=C(Nc1ncc(SCCN2CCCC2)s1)[C@]1(c2ccc(S(=O)(=O)C3CC3)cc2)C[C@@H]1C1CCCCC1,Potency,[1],"inconclusive: 20.9 µM [cytotoxic, partial curve, poor fit]"
same,Potency,[2],"inconclusive: 33.2 µM [cytotoxic, single point]"
same,Potency,[4],"inconclusive: 37.2 µM [cytotoxic, single point]"
same,Potency,[6],"inconclusive: 26.4 µM [falling, partial curve]"
C[C@@H](NC(=O)c1ncnc(N)c1Cl)c1ncc(C(=O)Nc2cc(C(F)(F)F)c(Cl)cn2)s1,Potency,[1],"inconclusive: 16.6 µM [cytotoxic, partial curve, poor fit]"
same,Potency,[2],"inconclusive: 9.35 µM [cytotoxic, partial curve]"
same,Potency,[8],"inconclusive: 23.5 µM [cytotoxic, partial curve]"
same,Potency,[9],"inconclusive: 3.72 µM [cytotoxic, full curve, poor fit]"
same,Potency,[5],"inconclusive: 14.8 µM [cytotoxic, partial curve, poor fit]"
same,Potency,[6],"inconclusive: 23.5 µM [falling, single point]"
O=C1C(CCC(O)c2ccc(F)cc2)C(c2ccc(O)cc2)N1c1ccc(F)cc1 (stereo not drawn),Potency,[1],"inconclusive: 0.118 µM [rising, full curve, poor fit]"
same,Potency,[2],"inconclusive: 18.7 µM [cytotoxic, partial curve, poor fit]"
same,Potency,[8],"inconclusive: 16.6 µM [cytotoxic, partial curve, poor fit]"
same,Potency,[9],inactive
same,Potency,[6],"inconclusive: 7.43 µM [rising, partial curve, poor fit]"
same,Potency,[10],inactive
C[C@@H]1CC(=O)NN=C1c1ccc(NN=C(C#N)C#N)cc1,Potency,[1],"inconclusive: 18.7 µM [cytotoxic, partial curve, poor fit]"
same,Potency,[2],active: 14.8 µM
same,Potency,[4],"inconclusive: 33.2 µM [cytotoxic, partial curve, poor fit]"
same,Potency,[6],"inconclusive: 20.9 µM [falling, partial curve]"
C=CC(=O)Nc1cc(NC(=O)c2ccc(C)c(NC(=O)c3ccno3)c2)cc(C(F)(F)F)c1,Potency,[1],active: 20.9 µM
same,Potency,[8],active: 16.6 µM
same,Potency,[3],active: 23.5 µM
same,Potency,[4],"inconclusive: 20.9 µM [cytotoxic, partial curve]"
same,Potency,[6],"inconclusive: 23.5 µM [falling, single point]"
CN1CCN(c2ccc3nc(-c4c(N)c5c(F)cccc5[nH]c4=O)[nH]c3c2)CC1,Potency,[1],active: 5.9 µM
same,Potency,[8],active: 2.64 µM
same,Potency,[4],"inconclusive: 18.7 µM [cytotoxic, partial curve, poor fit]"
same,Potency,[6],"inconclusive: 16.6 µM [falling, partial curve]"
Nc1ccc(C(=O)c2cc3c(ccc4ccccc43)[nH]2)cc1,Potency,[1],active: 9.35 µM
same,Potency,[8],"inconclusive: 2.96 µM [cytotoxic, full curve]"
same,Potency,[3],"inconclusive: 3.32 µM [cytotoxic, full curve]"
same,Potency,[5],active: 0.935 µM
same,Potency,[6],"inconclusive: 16.6 µM [falling, partial curve]"
Cc1ccc(S(=O)(=O)N[C@@H](Cc2ccccc2)C(=O)CCl)cc1,Potency,[1],active: 13.2 µM
same,Potency,[8],active: 11.8 µM
same,Potency,[4],active: 18.7 µM
same,Potency,[5],active: 11.8 µM
same,Potency,[6],"inconclusive: 26.4 µM [falling, partial curve]"
CCN(CC)CCNC(=O)c1ccc2nc(-c3ccccc3)c(-c3ccc(CN4CCC(n5c(=O)[nH]c6ccccc65)CC4)cc3)nc2c1,Potency,[1],active: 1.32 µM
same,Potency,[8],active: 0.332 µM
same,Potency,[3],active: 20.9 µM
same,Potency,[4],"inconclusive: 37.2 µM [cytotoxic, single point]"
same,Potency,[6],"inconclusive: 20.9 µM [falling, partial curve]"
O=C(NOC[C@H](O)CO)c1ccc(F)c(F)c1Nc1ccc(I)cc1F,Potency,[1],"inconclusive: 0.372 µM [cytotoxic, full curve, poor fit]"
same,Potency,[8],inactive
same,Potency,[4],"inconclusive: 13.2 µM [cytotoxic, partial curve, poor fit]"
same,Potency,[9],inactive
same,Potency,[5],inactive
same,Potency,[6],"inconclusive: 0.0187 µM [falling, full curve]"
CCN1CCN(c2ccc(Nc3cc(N(C)C(=O)Nc4c(Cl)c(OC)cc(OC)c4Cl)ncn3)cc2)CC1,Potency,[1],"inconclusive: 0.0118 µM [cytotoxic, full curve, poor fit]"
same,Potency,[8],"inconclusive: 14.8 µM [cytotoxic, partial curve, poor fit]"
same,Potency,[3],inactive
same,Potency,[5],inactive
same,Potency,[6],"inconclusive: 5.9 µM [falling, partial curve]"
Cc1ccccc1C(=O)c1ccc(Nc2ccc(Br)cc2N)cc1Cl,Potency,[1],"inconclusive: 37.2 µM [cytotoxic, partial curve, poor fit]"
same,Potency,[8],"inconclusive: 16.6 µM [cytotoxic, partial curve, poor fit]"
same,Potency,[4],active: 23.5 µM
same,Potency,[6],inconclusive: 20.9 µM
N#Cc1c(NC(=O)c2cccc3ccccc23)sc2c1CCCC2,Potency,[1],active: 0.418 µM
same,Potency,[8],active: 0.296 µM
same,Potency,[5],"inconclusive: 0.148 µM [cytotoxic, full curve]"
same,Potency,[6],active: 0.833 µM
c1cc(OCCN2CCCCC2)cc(-c2n[nH]c3ccc(-c4ncn[nH]4)cc23)c1,Potency,[1],"inconclusive: 6.62 µM [cytotoxic, partial curve, poor fit]"
same,Potency,[8],active: 16.6 µM
same,Potency,[3],"inconclusive: 26.4 µM [cytotoxic, single point]"
same,Potency,[4],"inconclusive: 26.4 µM [cytotoxic, single point]"
same,Potency,[5],"inconclusive: 13.2 µM [cytotoxic, partial curve]"
same,Potency,[6],inconclusive: 0.372 µM
CS(=O)(=O)Oc1ccc2c(NC(N)=O)c(C(=O)c3ccc(Cl)cc3Cl)oc2c1,Potency,[1],active: 16.6 µM
same,Potency,[3],"inconclusive: 1.66 µM [rising, partial curve, poor fit]"
same,Potency,[4],inactive
same,Potency,[6],"inconclusive: 7.43 µM [falling, partial curve]"
CC(C)(N)c1ccc(-c2nc3ccccc3nc2-c2ccccc2)cc1,Potency,[1],"inconclusive: 29.6 µM [cytotoxic, partial curve, poor fit]"
same,Potency,[3],"inconclusive: 37.2 µM [cytotoxic, single point]"
same,Potency,[4],"inconclusive: 37.2 µM [cytotoxic, single point]"
same,Potency,[6],"inconclusive: 16.6 µM [falling, partial curve]"
COC(=O)N[C@H](C(=O)N[C@@H](Cc1ccccc1)[C@@H](O)CN(Cc1ccc(-c2ccccn2)cc1)NC(=O)[C@@H](NC(=O)OC)C(C)(C)C)C(C)(C)C,Potency,[1],"inconclusive: 2.64 µM [cytotoxic, full curve, poor fit]"
same,Potency,[3],inactive
same,Potency,[9],"inconclusive: 20.9 µM [cytotoxic, partial curve]"
same,"viability, % of control",[5],inconclusive: 67.8% [cytotoxic]
NC(=O)C1CCCc2c1[nH]c1ccc(Cl)cc21 (stereo not drawn),Potency,[1],"inconclusive: 4.18 µM [cytotoxic, full curve, poor fit]"
same,Potency,[3],inactive
same,Potency,[5],"inconclusive: 0.935 µM [cytotoxic, full curve, poor fit]"
CC=C(C(=CC)c1ccc(O)cc1)c1ccc(O)cc1,Potency,[1],"inconclusive: 18.7 µM [cytotoxic, partial curve, poor fit]"
same,Potency,[3],"inconclusive: 41.8 µM [cytotoxic, single point]"
same,Potency,[4],active: 18.7 µM
same,Potency,[9],"inconclusive: 29.6 µM [cytotoxic, single point]"
same,Potency,[6],"inconclusive: 33.2 µM [falling, single point]"

# Random excerpt: five records from the list, in no set order.
smiles,measurement,setting,value
COC(=O)N[C@H](C(=O)N[C@@H](Cc1ccccc1)[C@@H](O)CN(Cc1ccc(-c2ccccn2)cc1)NC(=O)[C@@H](NC(=O)OC)C(C)(C)C)C(C)(C)C,"viability, % of control",[5],inconclusive: 67.8% [cytotoxic]
CCN1CCN(c2ccc(Nc3cc(N(C)C(=O)Nc4c(Cl)c(OC)cc(OC)c4Cl)ncn3)cc2)CC1,Potency,[3],inactive
CCCCN(CCCC)CC(O)c1cc(Cl)cc2c1-c1ccc(Cl)cc1C2=Cc1ccc(Cl)cc1 (stereo not drawn),Potency,[8],"inconclusive: 29.6 µM [cytotoxic, single point]"
O=C1C(CCC(O)c2ccc(F)cc2)C(c2ccc(O)cc2)N1c1ccc(F)cc1 (stereo not drawn),Potency,[10],inactive
CN1CCN(c2ccc3nc(-c4c(N)c5c(F)cccc5[nH]c4=O)[nH]c3c2)CC1,Potency,[8],active: 2.64 µM
